The other results are listed elsewhere or left out.
Tests used:
Test in all cases: log2 fold change, soluble protein after heating vs DMSO (PISA); higher = thermal stabilisation; K562 cells, 10 uM, 30 min; active = over 0.2 and 3.5 SD of the protein, either way, in both replicates (recomputed)
[1] = compound: CS(=O)(=O)c1ccc(-c2cnc(N)c(C(=O)Nc3ccccc3)n2)cc1
In short: (§1)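 For each measurement, 10 μM compound was applied for 30 min to K562 cells at 2×10^6 cells/mL. Aliquots were heated for 3 min across 48°C-58°C, pooled, and extracted in PBS with 0.5% NP-40 at 4°C; the supernatant after 21,000xg for 90 min was soluble protein. This was quantified by TMTpro 16plex LC-MS/MS with channel sums equalised, and thermal stability was reported relative to control samples from duplicates, on a log2 fold-change scale.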

Amino acid sequences for entries named in this document (tags omitted). A change or cut given only in a name is not applied to a line headed by its entry.
UniProt Q9UL63, whole entry, looked up: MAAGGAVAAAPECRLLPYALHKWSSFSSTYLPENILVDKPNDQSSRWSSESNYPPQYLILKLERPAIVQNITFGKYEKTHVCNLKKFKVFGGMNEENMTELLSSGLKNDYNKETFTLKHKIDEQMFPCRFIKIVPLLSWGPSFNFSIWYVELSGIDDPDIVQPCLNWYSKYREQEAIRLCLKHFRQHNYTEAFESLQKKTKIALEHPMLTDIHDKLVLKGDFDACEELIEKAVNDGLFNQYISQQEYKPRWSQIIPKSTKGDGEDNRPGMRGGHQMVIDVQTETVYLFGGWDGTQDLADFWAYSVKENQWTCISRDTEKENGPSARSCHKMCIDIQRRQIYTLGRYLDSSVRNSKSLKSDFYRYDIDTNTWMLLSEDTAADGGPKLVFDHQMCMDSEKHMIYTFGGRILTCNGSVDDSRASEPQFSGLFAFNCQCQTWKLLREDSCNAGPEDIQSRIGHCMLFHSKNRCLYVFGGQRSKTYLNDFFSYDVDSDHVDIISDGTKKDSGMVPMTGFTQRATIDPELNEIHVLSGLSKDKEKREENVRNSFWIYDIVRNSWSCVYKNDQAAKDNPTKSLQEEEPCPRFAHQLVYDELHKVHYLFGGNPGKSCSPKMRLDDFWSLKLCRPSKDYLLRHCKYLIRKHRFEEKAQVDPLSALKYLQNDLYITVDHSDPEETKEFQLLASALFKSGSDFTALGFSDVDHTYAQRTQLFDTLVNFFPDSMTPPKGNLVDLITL
UniProt Q13724: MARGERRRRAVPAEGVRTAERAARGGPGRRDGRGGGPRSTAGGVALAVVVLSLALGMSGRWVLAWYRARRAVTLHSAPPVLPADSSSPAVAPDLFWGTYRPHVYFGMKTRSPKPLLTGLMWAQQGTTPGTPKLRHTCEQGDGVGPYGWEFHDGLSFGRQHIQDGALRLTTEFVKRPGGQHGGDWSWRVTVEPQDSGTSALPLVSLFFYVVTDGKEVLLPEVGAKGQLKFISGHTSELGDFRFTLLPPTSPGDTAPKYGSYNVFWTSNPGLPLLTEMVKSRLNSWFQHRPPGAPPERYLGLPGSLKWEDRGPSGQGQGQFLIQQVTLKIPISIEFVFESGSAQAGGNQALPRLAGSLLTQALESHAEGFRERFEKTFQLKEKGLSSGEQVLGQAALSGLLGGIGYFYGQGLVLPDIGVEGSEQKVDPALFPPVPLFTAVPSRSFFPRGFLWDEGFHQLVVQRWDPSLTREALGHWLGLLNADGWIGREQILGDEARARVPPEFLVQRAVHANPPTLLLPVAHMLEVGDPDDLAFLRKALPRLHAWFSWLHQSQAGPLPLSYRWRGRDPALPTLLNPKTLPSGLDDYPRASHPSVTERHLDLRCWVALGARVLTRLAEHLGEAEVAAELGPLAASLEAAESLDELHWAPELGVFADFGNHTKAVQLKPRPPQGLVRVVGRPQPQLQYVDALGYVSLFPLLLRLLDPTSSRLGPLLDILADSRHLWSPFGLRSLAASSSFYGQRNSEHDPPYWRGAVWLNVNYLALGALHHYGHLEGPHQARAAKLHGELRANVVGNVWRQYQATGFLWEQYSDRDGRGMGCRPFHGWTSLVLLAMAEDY
UniProt O75352: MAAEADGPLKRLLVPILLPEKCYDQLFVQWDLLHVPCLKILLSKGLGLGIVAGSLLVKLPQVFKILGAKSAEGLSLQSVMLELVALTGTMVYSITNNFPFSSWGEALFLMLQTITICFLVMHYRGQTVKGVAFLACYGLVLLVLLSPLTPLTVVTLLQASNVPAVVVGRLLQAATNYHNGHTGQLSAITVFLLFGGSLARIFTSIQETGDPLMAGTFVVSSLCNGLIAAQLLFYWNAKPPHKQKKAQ
UniProt A9UHW6: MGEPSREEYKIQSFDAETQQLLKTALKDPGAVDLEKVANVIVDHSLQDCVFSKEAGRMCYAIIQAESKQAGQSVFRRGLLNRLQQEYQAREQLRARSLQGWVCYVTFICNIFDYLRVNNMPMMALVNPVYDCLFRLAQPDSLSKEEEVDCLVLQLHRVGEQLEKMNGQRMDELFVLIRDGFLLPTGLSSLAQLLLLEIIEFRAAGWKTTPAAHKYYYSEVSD
UniProt Q9NV56, whole entry, looked up: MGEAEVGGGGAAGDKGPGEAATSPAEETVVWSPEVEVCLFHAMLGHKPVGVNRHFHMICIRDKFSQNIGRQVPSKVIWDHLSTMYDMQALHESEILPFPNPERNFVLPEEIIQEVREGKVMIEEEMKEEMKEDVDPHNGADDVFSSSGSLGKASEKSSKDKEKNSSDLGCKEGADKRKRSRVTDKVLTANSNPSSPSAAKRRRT
UniProt Q03111: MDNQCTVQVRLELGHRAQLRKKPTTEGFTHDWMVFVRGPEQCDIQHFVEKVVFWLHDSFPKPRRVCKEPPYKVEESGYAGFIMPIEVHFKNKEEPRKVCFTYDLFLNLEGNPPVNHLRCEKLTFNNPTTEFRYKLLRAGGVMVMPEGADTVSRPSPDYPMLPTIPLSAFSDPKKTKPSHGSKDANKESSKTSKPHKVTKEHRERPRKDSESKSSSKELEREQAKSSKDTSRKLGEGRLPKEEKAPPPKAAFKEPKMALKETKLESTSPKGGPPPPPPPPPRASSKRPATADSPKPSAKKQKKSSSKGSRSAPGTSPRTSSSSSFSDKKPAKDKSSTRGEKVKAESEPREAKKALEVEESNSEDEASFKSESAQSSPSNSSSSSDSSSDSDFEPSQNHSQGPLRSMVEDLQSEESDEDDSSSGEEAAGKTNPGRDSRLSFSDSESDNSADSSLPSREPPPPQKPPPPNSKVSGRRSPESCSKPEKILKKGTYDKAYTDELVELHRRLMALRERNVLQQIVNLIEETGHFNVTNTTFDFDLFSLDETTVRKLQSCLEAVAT
UniProt P29372, whole entry, looked up: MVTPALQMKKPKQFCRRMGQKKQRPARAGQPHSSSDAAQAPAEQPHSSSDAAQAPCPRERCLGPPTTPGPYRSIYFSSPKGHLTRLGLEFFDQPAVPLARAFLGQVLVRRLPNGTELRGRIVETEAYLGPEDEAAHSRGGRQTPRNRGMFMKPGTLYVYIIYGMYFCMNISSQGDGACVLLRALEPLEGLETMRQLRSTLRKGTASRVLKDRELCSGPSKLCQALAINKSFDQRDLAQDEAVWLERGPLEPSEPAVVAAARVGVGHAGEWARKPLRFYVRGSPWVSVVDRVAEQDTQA
UniProt O95297: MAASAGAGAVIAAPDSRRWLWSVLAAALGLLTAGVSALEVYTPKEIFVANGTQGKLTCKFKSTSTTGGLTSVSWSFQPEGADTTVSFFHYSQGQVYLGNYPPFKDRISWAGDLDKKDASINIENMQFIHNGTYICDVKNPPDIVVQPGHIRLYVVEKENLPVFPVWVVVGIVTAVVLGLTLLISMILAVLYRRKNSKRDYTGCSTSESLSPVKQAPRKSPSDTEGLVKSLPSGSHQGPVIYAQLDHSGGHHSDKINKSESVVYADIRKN
UniProt Q9Y3A3: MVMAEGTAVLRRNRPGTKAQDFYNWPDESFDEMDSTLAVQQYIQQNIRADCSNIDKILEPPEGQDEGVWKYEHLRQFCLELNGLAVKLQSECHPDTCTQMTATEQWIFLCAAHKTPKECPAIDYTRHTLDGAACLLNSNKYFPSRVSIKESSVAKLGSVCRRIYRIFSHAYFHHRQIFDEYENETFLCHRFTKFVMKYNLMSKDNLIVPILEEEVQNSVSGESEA
UniProt Q9H8M7: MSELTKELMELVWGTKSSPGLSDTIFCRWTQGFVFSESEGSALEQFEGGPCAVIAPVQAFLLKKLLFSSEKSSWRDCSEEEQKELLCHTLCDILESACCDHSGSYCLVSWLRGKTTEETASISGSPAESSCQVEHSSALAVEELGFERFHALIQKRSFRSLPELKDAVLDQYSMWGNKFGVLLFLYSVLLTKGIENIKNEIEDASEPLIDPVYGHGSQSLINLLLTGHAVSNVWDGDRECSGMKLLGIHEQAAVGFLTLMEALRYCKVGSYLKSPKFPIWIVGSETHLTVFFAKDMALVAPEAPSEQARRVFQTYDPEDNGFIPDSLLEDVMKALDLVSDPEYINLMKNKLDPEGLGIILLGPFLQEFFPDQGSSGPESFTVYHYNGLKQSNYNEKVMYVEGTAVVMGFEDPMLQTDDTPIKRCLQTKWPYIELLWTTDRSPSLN
UniProt Q9NZB8: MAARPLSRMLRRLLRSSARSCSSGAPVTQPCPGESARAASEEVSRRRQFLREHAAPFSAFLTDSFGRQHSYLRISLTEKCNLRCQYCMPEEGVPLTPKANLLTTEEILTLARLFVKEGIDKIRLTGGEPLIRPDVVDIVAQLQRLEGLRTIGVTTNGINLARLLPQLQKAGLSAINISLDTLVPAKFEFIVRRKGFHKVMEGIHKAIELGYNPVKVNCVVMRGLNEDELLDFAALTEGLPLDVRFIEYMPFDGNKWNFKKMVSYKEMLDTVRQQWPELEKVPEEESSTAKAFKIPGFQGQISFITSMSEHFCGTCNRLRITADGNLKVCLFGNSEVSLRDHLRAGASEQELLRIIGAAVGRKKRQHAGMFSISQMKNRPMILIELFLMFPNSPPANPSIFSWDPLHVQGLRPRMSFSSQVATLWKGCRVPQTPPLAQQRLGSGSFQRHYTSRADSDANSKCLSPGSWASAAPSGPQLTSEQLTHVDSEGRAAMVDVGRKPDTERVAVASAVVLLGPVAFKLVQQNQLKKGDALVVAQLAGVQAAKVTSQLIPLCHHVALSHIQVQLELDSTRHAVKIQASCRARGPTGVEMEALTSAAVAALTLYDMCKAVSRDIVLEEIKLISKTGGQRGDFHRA
UniProt Q96EN8: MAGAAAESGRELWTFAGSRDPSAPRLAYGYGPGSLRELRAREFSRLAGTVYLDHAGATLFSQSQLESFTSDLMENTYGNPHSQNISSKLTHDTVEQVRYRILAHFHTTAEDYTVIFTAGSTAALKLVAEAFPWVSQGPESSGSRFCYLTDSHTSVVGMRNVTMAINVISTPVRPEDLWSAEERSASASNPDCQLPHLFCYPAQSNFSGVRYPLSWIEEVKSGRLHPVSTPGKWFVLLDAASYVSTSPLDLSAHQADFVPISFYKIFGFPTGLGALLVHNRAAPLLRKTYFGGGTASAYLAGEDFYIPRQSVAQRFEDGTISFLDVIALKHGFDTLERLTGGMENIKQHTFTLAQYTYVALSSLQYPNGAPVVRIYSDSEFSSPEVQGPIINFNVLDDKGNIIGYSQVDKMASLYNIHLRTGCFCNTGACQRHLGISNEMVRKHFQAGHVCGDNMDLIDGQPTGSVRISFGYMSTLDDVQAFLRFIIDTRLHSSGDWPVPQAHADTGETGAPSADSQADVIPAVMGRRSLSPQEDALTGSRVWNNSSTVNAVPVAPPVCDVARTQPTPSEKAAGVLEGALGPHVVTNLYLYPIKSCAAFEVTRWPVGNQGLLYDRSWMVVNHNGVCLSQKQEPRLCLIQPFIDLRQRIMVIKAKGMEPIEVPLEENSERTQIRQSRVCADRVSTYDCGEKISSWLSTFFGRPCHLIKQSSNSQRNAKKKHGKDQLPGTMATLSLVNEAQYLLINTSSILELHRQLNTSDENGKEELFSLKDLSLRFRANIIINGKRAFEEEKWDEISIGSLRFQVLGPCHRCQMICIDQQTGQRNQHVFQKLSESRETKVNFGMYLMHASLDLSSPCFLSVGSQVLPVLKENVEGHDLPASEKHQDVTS
UniProt Q96EY8: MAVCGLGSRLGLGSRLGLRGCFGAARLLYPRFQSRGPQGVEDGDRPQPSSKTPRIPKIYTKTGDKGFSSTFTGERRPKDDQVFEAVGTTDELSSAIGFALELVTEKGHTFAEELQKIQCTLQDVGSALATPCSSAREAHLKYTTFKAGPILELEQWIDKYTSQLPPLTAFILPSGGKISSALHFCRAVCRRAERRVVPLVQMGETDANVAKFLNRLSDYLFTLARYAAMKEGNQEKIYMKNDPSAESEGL
UniProt Q567V2: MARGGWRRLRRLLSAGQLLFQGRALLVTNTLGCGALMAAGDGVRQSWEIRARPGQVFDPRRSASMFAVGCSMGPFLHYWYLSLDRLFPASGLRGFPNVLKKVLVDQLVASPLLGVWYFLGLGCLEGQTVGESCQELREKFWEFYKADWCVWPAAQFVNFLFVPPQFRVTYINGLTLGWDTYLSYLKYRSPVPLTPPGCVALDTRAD

crizotinib = compound: C[C@@H](Oc1cc(-c2cnn(C3CCNCC3)c2)cnc1N)c1c(Cl)ccc(F)c1Cl [crizotinib]
In short: as §1

[2] = compound: C[C@@H]1COCCN1C2=NC(=NC(=C2)C3(CC3)S(=O)(=O)C)C4=C5C=CNC5=CC=C4
In short: as §1

[3] = compound: C[C@H](C1=CC=C(C=C1)C(=O)NC2=C3C=CNC3=NC=C2)N
In short: as §1

duvelisib = compound: C[C@H](Nc1ncnc2nc[nH]c12)c1cc2cccc(Cl)c2c(=O)n1-c1ccccc1 [duvelisib]
In short: as §1

gandotinib = compound: Cc1cc(Nc2cc(CN3CCOCC3)c3nc(C)c(Cc4ccc(Cl)cc4F)n3n2)n[nH]1 [gandotinib]
In short: as §1

tozasertib = compound: Cc1cc(Nc2cc(N3CCN(C)CC3)nc(Sc3ccc(NC(=O)C4CC4)cc3)n2)n[nH]1 [tozasertib]
In short: as §1

[4] = compound: Cc1cc(SCc2sc(-c3ccc(C(F)(F)F)cc3)nc2C)ccc1OCC(=O)O
In short: as §1

doramapimod = compound: Cc1ccc(-n2nc(C(C)(C)C)cc2NC(=O)Nc2ccc(OCCN3CCOCC3)c3ccccc23)cc1 [doramapimod]
In short: as §1

ispinesib = compound: Cc1ccc(C(=O)N(CCCN)[C@@H](c2nc3cc(Cl)ccc3c(=O)n2Cc2ccccc2)C(C)C)cc1 [ispinesib]
In short: as §1

Measured: log2 fold change

MKLN1 (UniProt Q9UL63)
inactive: [1] 0.013 | crizotinib 0.045 | [2] -0.045 | [3] 0.007 | duvelisib -0.044 | gandotinib -0.022 | tozasertib 0.075 | [4] 0 | doramapimod -0.014 | ispinesib 0.133

MRPL24 (UniProt Q96A35)
inactive: [1] 0.074 | crizotinib 0.011 | [2] -0.055 | [3] 0.327 | duvelisib -0.096 | gandotinib 0.213 | tozasertib -0.028 | [4] 0.132 | doramapimod 0.145 | ispinesib -0.093

MOGS (UniProt Q13724)
inactive: [1] 0.018 | crizotinib -0.026 | [2] -0.046 | [3] 0.16 | duvelisib 0.023 | gandotinib -0.07 | tozasertib -0.002 | [4] 0.019 | doramapimod 0.063 | ispinesib -0.093

MPDU1 (UniProt O75352)
inactive: [1] 0.001 | crizotinib 0.117 | [2] 0.264 | [3] -0.139 | duvelisib 0.208 | gandotinib -0.031 | tozasertib -0.01 | [4] 0.027 | doramapimod 0.013 | ispinesib 0.117

MRPL30 isoform 2 (UniProt Q8TCC3)
inactive: [1] 0.072 | crizotinib 0.048 | [2] -0.1 | [3] 0.31 | duvelisib -0.1 | gandotinib 0.187 | tozasertib 0.016 | [4] 0.154 | doramapimod 0.073 | ispinesib -0.158

MRPL28 (UniProt Q13084)
inactive: [1] 0.031 | crizotinib 0.002 | [2] -0.039 | [3] 0.208 | duvelisib -0.033 | gandotinib 0.185 | tozasertib -0.092 | [4] 0.101 | doramapimod 0.072 | ispinesib -0.104

MRPL3 (UniProt P09001)
inactive: [1] 0.026 | crizotinib 0.045 | [2] -0.006 | [3] 0.243 | duvelisib -0.039 | gandotinib 0.089 | tozasertib 0.015 | [4] 0.211 | doramapimod 0.089 | ispinesib -0.096

MIF4GD isoform 3 (UniProt A9UHW6)
inactive: [1] 0.055 | crizotinib 0.076 | [2] 0.004 | [3] -0.093 | duvelisib 0.063 | gandotinib 0.067 | tozasertib -0.01 | [4] -0.027 | doramapimod 0.012 | ispinesib 0.083

MRPL14 (UniProt Q6P1L8)
inactive: [1] 0.091 | crizotinib -0.069 | [2] 0.031 | [3] -0.026 | duvelisib -0.079 | gandotinib 0.02 | tozasertib 0.019 | [4] -0.023 | doramapimod 0.052 | ispinesib -0.127

MRGBP (UniProt Q9NV56)
inactive: [1] 0.048 | crizotinib 0.021 | [2] -0.034 | [3] -0.001 | duvelisib 0.027 | gandotinib 0.023 | tozasertib 0.029 | [4] 0 | doramapimod 0.015 | ispinesib 0.024

MRPL51 (UniProt Q4U2R6)
inactive: [1] 0.053 | crizotinib -0.032 | [2] -0.141 | [3] 0.352 | duvelisib -0.134 | gandotinib 0.234 | tozasertib -0.052 | [4] 0.067 | doramapimod 0.086 | ispinesib -0.107

MRPL2 (UniProt Q5T653)
inactive: [1] 0.086 | crizotinib 0.05 | [2] -0.194 | [3] 0.267 | duvelisib -0.104 | gandotinib 0.013 | tozasertib 0.012 | [4] 0.083 | doramapimod 0.107 | ispinesib -0.252

MRPL21 (UniProt Q7Z2W9)
inactive: [1] 0.034 | crizotinib 0.005 | [2] -0.128 | [3] 0.192 | duvelisib -0.133 | gandotinib -0.031 | tozasertib 0.02 | [4] 0.155 | doramapimod 0.11 | ispinesib -0.12

MLLT1 (UniProt Q03111)
inactive: [1] -0.031 | crizotinib 0.051 | [2] -0.006 | [3] 0.082 | duvelisib 0.007 | gandotinib 0.151 | tozasertib -0.044 | [4] 0.043 | doramapimod 0.057 | ispinesib -0.219

MRPL4 (UniProt Q9BYD3)
inactive: [1] -0.033 | crizotinib 0.047 | [2] -0.087 | [3] 0.165 | duvelisib -0.084 | gandotinib 0.181 | tozasertib 0.048 | [4] 0.041 | doramapimod 0.041 | ispinesib -0.141

MPG (UniProt P29372)
inactive: [1] -0.014 | crizotinib -0.103 | [2] -0.015 | [3] 0.098 | duvelisib -0.071 | gandotinib -0.015 | tozasertib -0.028 | [4] 0.009 | doramapimod 0.088 | ispinesib -0.028

MPZL1 (UniProt O95297)
inactive: [1] 0 | crizotinib 0.17 | [2] 0.02 | [3] -0.084 | duvelisib 0.065 | gandotinib 0.1 | tozasertib -0.097 | [4] -0.077 | doramapimod -0.015 | ispinesib 0.035

MOB4 (UniProt Q9Y3A3)
inactive: [1] 0.029 | crizotinib 0.014 | [2] 0.021 | [3] -0.111 | duvelisib 0.072 | gandotinib -0.057 | tozasertib -0.043 | [4] 0.063 | doramapimod -0.051 | ispinesib 0.015

MRPL27 (UniProt Q9P0M9)
inactive: [1] -0.026 | crizotinib -0.018 | [2] -0.146 | [3] 0.27 | duvelisib -0.192 | gandotinib 0.178 | tozasertib 0.011 | [4] 0.125 | doramapimod 0.153 | ispinesib -0.188

MINDY3 (UniProt Q9H8M7)
inactive: [1] -0.02 | crizotinib 0.001 | [2] 0.083 | [3] 0.034 | duvelisib 0.034 | gandotinib -0.077 | tozasertib -0.067 | [4] 0 | doramapimod 0.026 | ispinesib 0.029

MOCS1 isoform 8 (UniProt Q9NZB8)
inactive: [1] -0.015 | crizotinib 0.074 | [2] 0.068 | [3] -0.166 | duvelisib 0.05 | gandotinib -0.162 | tozasertib 0.037 | [4] 0.008 | doramapimod 0.017 | ispinesib -0.025

MOCOS (UniProt Q96EN8)
inactive: [1] -0.004 | crizotinib 0.017 | [2] -0.034 | [3] -0.082 | duvelisib 0.091 | gandotinib 0.015 | tozasertib -0.052 | [4] -0.028 | doramapimod -0.004 | ispinesib -0.057

MMAB (UniProt Q96EY8)
inactive: [1] -0.031 | crizotinib 0.013 | [2] 0.034 | [3] -0.036 | duvelisib 0.059 | gandotinib 0.177 | tozasertib -0.051 | [4] -0.026 | doramapimod 0.02 | ispinesib 0.032

MRPL45 (UniProt Q9BRJ2)
inactive: [1] 0.031 | crizotinib 0.048 | [2] -0.016 | [3] 0.162 | duvelisib -0.011 | gandotinib -0.035 | tozasertib -0.054 | [4] 0.177 | doramapimod 0.077 | ispinesib -0.118

MPV17L2 (UniProt Q567V2)
inactive: [1] -0.014 | crizotinib 0.174 | [2] 0.031 | [3] -0.126 | duvelisib 0.082 | gandotinib -0.023 | tozasertib -0.038 | [4] -0.048 | doramapimod -0.044 | ispinesib 0.147

MRPL18 (UniProt Q9H0U6)
inactive: [1] 0.008 | crizotinib 0.025 | [2] -0.219 | [3] 0.132 | duvelisib -0.155 | gandotinib 0.071 | tozasertib 0.089 | [4] 0.227 | doramapimod 0.052 | ispinesib -0.165

Pulled one by one from the list above, two records:
MKLN1 (UniProt Q9UL63)
inactive: [1] 0.013 | crizotinib 0.045 | [2] -0.045 | [3] 0.007 | duvelisib -0.044 | gandotinib -0.022 | tozasertib 0.075 | [4] 0 | doramapimod -0.014 | ispinesib 0.133

MRPL21 (UniProt Q7Z2W9)
inactive: [1] 0.034 | crizotinib 0.005 | [2] -0.128 | [3] 0.192 | duvelisib -0.133 | gandotinib -0.031 | tozasertib 0.02 | [4] 0.155 | doramapimod 0.11 | ispinesib -0.12

Following part

MRPL16 (UniProt Q9NX20)
inactive: [1] 0.027 | crizotinib 0.063 | [2] -0.036 | [3] 0.203 | duvelisib -0.108 | gandotinib 0.308 | tozasertib 0.013 | [4] -0.024 | doramapimod 0.1 | ispinesib -0.008

MRPL11 (UniProt Q9Y3B7)
inactive: [1] -0.03 | crizotinib -0.001 | [2] -0.025 | [3] 0.231 | duvelisib -0.004 | gandotinib 0.127 | tozasertib 0.051 | [4] 0.136 | doramapimod 0.066 | ispinesib -0.112

MRPL13 (UniProt Q9BYD1)
inactive: [1] 0.008 | crizotinib 0.058 | [2] -0.015 | [3] 0.232 | duvelisib -0.046 | gandotinib 0.102 | tozasertib 0.085 | [4] 0.034 | doramapimod 0.082 | ispinesib -0.051

Source: the supplement of paper PMC10849652
